From ChEMBL document CHEMBL3352189 (J Med Chem, 2014)

The chains behind the UniProt entries cited, without tags or fusion partners.
UniProt P11712, whole entry: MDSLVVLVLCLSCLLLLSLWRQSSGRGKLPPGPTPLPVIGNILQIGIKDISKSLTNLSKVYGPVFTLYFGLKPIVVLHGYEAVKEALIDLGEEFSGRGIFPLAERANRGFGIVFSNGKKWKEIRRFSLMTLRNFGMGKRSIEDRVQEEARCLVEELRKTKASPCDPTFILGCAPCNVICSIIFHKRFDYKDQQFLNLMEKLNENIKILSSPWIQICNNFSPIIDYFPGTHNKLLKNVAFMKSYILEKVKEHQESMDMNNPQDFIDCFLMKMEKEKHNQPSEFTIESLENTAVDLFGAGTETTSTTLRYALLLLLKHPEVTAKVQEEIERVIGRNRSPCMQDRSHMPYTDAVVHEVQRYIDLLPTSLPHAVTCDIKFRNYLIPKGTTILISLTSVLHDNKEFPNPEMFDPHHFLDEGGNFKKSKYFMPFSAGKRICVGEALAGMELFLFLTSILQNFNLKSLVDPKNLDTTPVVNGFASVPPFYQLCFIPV

Biological target: Cytochrome P450 2C9 (Homo sapiens, UniProt P11712)
Experiment: Inhibition of human CYP2C9 at 10 uM
Format: ADME

SMILES: Nc1ccc(S(=O)(=O)Nc2ccnn2-c2ccccc2)cc1 [SULFAPHENAZOLE]
- inhibition (INH): 96%
